Holding throughout (assay): MST
The target in series [1] is T1, DExH1 (Arabidopsis thaliana) (UniProt F4ILR7).
T1 sequence (looked up): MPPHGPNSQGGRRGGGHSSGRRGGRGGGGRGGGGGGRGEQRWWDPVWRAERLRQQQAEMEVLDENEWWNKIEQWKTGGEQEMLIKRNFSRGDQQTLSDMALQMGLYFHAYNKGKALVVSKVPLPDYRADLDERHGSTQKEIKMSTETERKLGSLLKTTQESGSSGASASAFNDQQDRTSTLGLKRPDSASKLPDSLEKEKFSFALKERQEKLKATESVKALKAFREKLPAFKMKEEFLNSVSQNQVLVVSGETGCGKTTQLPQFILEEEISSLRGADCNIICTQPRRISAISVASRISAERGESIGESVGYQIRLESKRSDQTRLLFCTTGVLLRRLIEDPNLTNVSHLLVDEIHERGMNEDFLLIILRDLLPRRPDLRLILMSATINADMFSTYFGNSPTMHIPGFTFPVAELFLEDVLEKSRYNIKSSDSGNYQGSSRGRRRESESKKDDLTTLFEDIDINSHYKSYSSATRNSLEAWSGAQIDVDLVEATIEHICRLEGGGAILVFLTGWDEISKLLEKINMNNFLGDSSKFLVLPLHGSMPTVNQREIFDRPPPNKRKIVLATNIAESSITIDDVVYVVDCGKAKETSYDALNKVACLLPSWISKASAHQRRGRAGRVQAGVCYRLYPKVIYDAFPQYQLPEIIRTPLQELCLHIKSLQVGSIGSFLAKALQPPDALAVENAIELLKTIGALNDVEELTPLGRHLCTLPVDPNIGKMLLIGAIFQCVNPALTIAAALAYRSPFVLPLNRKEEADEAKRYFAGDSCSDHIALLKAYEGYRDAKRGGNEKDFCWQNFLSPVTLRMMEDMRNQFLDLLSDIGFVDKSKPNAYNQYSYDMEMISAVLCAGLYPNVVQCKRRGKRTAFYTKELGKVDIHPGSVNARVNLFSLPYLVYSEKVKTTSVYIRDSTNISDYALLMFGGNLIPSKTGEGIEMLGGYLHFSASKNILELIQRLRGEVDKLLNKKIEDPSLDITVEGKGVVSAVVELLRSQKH
The note with it: 3' tail rG4 preferred, EC50 only in figure; MST: 20 nM FAM-RNA; recombinant protein; residues 1-995; protein details: 6xHis-SUMO removed; label: 5'-FAM.

The chains behind the UniProt entries cited, without tags or fusion partners.
UniProt P41376, whole entry: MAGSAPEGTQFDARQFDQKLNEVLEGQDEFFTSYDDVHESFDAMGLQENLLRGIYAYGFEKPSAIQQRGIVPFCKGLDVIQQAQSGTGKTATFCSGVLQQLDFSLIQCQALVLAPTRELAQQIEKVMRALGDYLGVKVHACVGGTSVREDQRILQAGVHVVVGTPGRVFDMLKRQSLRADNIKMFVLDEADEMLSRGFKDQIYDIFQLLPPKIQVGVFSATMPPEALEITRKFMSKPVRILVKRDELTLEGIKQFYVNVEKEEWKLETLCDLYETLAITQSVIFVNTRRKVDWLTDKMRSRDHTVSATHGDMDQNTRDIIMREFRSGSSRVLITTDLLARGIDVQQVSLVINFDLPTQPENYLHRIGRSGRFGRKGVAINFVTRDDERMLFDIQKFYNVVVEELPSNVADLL

Series [2] concerns the target T2, DExH15 (Arabidopsis thaliana) (UniProt B9DFG3).
T2 sequence (looked up): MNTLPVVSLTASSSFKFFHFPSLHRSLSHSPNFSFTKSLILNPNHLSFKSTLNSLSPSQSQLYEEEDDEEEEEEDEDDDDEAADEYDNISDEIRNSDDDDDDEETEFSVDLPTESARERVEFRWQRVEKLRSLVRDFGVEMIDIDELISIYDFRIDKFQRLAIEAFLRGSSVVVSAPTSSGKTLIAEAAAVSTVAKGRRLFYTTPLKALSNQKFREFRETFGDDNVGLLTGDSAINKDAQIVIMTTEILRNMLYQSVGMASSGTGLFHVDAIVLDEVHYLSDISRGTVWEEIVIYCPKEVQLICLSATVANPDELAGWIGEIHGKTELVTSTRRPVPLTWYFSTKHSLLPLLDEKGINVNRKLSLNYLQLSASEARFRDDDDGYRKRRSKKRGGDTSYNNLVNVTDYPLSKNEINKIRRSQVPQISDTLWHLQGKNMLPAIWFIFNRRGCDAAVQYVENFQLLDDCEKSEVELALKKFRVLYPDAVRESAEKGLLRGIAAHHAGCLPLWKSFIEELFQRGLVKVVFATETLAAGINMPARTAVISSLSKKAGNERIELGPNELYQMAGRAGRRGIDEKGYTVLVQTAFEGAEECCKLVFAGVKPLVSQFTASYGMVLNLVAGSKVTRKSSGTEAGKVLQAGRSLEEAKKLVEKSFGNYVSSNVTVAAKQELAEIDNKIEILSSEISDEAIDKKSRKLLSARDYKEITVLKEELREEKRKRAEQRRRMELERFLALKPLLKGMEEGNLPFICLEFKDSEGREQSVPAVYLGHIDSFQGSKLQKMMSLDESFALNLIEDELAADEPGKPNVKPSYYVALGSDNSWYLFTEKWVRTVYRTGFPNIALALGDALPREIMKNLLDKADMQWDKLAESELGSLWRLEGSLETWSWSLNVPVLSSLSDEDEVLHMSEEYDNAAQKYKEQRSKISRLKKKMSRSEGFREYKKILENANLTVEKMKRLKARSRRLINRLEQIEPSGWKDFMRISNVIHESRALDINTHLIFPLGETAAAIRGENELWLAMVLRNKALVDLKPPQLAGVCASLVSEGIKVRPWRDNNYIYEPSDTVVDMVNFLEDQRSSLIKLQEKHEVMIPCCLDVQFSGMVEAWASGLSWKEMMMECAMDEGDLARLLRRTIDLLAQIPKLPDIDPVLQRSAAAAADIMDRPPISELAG
The note with it: 3' tail rG4 preferred, EC50 only in figure; MST: 20 nM FAM-RNA; recombinant protein; residues 1-1171; protein details: 6xHis-SUMO removed; label: 5'-FAM.

Series [3] deals with T3, RH53 (Arabidopsis thaliana) (UniProt Q9LUW5).
T3 sequence (looked up): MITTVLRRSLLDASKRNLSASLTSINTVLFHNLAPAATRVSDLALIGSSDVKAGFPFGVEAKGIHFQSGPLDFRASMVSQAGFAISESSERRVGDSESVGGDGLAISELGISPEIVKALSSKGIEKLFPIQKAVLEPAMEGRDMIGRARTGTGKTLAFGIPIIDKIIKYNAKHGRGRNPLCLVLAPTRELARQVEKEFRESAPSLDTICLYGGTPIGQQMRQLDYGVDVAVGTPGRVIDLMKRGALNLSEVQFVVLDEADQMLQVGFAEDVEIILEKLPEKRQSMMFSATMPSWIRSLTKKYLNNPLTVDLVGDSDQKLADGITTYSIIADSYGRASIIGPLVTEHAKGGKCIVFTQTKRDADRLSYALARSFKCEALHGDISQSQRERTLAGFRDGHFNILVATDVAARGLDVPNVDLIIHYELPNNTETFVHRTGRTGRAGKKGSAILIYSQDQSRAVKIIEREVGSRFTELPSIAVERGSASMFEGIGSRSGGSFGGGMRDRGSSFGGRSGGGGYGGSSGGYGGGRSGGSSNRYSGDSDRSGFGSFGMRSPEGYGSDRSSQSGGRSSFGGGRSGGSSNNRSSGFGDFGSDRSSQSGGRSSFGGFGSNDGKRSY
The note with it: EC50 only in figure; MST: 20 nM FAM-RNA; recombinant protein; residues 1-616; protein details: N-terminal 6xHis-SUMO (retained); label: 5'-FAM.

Series [4] has as its target eIF4A (eIF4A1) (Arabidopsis thaliana) (UniProt P41376). The settings on record: EC50 only in figure; MST: 20 nM FAM-RNA; recombinant protein; residues 1-412; protein details: 6xHis-SUMO removed; label: 5'-FAM.

For at least one entry, the source does not settle the construct or the ends of the probe. For some of these results: Weaker means in comparison with the reference protein, sequence or condition of that experiment. At least one verdict rests on a figure or table, not on a statement of the authors. For some of these results: Tags and fusion partners may be left off the protein sequences shown.

The values that follow come from publication PMC9293640, “Insights into the structural dynamics and helicase-catalyzed unfolding of plant RNA G-quadruplexes”.

In the case of “UUUUUUUUUUUUUUUGGGAGGGAAGGGGAAGGGG [SG4 (5' tail rG4)]”, the binding result in series [1] was “binds more weakly”; in series [2] it was “binds more weakly”; in series [3], “binds”; in series [4], “binds”.
